No constants are given. Whether binding was seen depends on the method and setting. Binding seen in cells or lysates may run through a third protein. Binding can be weak; no strength is given.
Molecular target: T1, Robo4 (Roundabout 4) (human (endogenous in L-LECs)) (UniProt Q8WZ75)
T1 sequence: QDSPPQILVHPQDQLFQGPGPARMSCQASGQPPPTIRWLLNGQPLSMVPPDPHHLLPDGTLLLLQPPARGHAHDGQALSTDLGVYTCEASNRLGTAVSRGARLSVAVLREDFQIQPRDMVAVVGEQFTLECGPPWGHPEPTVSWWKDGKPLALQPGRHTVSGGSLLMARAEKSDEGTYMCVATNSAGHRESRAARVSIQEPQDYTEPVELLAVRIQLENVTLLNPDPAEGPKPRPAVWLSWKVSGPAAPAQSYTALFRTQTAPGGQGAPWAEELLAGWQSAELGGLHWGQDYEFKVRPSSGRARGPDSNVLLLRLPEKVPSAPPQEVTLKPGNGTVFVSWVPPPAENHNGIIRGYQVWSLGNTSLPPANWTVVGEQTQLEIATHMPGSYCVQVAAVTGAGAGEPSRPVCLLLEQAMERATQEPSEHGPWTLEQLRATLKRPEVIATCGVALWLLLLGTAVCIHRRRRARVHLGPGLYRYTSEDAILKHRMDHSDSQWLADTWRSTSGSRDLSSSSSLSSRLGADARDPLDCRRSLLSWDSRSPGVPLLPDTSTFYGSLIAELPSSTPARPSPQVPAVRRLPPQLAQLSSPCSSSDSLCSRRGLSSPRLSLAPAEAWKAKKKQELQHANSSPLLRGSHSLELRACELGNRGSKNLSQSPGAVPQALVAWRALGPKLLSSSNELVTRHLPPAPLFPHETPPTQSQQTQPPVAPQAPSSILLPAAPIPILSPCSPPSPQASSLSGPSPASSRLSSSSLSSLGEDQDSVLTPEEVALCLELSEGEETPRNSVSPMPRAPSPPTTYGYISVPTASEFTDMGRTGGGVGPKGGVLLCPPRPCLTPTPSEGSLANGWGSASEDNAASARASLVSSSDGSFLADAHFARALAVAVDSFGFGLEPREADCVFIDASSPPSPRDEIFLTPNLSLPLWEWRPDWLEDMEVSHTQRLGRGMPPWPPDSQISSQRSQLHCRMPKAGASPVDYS
Experiment: co-IP; Robo4 immunoprecipitated from total lysates (RIPA buffer) of L-LECs, Western blot for the partner; cells serum-starved 2 h, then treated with HIV-1 gp120 (500 ng/ml), Slit2N (500 ng/ml) or controls for 15 min, or with Slit2N 2 h and then gp120 for the times indicated

Substance: α5β1 integrin (human (endogenous in L-LECs)) (complex)
- binding: binds
